Among the data in PMC3349648 are binding values, retold here.

Amino acid sequences for entries named in this document (tags omitted). Residues count along the entry.
UniProt Q92542, residues 34-709: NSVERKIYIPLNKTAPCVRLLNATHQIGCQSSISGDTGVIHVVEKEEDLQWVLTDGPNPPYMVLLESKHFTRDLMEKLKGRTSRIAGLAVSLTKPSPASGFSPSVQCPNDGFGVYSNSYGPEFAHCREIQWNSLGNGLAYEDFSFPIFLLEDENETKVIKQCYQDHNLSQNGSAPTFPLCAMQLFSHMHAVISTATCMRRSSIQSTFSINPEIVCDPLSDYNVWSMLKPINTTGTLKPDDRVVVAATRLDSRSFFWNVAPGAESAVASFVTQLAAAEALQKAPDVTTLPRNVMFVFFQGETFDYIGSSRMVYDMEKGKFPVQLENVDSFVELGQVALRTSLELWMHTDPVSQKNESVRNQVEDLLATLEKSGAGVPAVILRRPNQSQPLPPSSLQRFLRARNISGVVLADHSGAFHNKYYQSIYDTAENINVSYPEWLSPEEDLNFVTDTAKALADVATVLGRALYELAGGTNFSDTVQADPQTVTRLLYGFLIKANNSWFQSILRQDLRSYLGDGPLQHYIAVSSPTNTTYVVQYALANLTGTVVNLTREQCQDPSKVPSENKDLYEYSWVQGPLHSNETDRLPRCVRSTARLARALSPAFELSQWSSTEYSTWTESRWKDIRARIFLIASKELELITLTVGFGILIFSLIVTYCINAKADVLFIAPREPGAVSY
UniProt O00141: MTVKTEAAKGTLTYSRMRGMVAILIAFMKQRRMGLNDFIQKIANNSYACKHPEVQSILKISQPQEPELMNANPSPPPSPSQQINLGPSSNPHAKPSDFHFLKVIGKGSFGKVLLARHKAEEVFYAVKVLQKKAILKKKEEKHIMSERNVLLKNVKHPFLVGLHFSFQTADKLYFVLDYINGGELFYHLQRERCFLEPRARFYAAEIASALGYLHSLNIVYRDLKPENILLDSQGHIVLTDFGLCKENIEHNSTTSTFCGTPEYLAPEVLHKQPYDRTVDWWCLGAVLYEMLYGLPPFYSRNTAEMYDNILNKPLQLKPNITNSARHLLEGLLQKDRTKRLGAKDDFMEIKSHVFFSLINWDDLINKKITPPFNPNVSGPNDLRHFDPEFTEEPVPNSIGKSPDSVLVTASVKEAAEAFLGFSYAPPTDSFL
UniProt Q06226: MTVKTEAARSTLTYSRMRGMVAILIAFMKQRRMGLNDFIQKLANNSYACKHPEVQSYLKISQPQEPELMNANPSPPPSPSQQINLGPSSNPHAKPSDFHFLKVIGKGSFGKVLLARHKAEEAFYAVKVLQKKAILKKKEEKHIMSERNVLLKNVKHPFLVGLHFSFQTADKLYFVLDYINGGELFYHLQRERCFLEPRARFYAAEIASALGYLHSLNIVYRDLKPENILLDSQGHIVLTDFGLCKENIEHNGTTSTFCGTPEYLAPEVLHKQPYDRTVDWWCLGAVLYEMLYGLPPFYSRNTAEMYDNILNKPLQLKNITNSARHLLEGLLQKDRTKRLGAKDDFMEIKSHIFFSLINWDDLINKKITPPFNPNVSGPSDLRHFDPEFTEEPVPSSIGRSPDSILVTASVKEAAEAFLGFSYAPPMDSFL
UniProt Q9WVC6: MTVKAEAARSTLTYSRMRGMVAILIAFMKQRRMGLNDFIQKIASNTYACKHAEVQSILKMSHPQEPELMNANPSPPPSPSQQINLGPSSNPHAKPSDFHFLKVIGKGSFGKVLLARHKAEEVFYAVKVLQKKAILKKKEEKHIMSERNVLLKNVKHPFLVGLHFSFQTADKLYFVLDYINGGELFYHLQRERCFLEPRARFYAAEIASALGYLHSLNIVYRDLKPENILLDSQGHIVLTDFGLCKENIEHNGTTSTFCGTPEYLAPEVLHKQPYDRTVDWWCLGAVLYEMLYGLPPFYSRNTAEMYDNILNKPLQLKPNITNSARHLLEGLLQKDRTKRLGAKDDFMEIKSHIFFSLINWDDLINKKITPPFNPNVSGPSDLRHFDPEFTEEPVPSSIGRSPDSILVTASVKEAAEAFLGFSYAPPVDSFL
UniProt Q8CGU6, residues 35-708: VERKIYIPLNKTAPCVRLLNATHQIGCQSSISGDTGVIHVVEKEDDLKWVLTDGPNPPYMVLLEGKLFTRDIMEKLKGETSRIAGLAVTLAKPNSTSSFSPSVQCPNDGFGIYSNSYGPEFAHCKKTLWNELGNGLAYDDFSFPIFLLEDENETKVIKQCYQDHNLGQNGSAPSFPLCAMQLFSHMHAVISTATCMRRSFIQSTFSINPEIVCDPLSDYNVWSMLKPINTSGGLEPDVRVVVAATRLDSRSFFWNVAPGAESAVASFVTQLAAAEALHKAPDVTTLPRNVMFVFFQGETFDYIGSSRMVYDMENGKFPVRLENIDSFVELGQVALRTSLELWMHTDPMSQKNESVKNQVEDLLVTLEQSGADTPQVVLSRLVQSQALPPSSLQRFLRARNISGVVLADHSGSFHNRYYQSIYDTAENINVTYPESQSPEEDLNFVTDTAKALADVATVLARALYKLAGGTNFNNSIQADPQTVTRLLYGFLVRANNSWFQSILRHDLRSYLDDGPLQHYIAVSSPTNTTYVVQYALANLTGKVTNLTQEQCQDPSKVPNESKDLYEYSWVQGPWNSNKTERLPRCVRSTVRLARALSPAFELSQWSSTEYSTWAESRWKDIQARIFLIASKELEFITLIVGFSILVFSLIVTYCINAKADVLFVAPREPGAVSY
UniProt P57716, residues 28-708: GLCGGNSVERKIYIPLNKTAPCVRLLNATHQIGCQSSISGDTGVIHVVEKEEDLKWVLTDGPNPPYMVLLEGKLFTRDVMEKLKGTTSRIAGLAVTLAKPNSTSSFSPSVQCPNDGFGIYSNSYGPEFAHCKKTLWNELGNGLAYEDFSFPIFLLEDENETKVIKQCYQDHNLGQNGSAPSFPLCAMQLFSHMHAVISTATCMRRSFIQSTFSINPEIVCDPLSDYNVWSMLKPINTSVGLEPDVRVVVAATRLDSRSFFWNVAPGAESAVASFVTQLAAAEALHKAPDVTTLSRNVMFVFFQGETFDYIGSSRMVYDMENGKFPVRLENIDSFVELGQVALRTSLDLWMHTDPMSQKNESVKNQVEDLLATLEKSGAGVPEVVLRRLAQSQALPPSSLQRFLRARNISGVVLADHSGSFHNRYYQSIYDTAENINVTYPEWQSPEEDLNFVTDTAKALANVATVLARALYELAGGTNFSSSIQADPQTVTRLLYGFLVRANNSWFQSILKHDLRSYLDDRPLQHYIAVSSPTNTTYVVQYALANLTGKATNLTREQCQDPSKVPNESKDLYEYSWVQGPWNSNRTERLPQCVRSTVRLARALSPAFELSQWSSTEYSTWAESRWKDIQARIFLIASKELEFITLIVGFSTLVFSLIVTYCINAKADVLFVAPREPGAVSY

No constants are given. Whether binding was seen depends on the method and setting. Binding seen in cells or lysates may run through a third protein. Some entries that bind do so weakly or less than the wild type.

Test [1] deals with V5-tagged wild-type Nicastrin (NCT) (UniProt Q92542). The experiment in a line: co-IP; HEK293 cells transfected for 48 hours; lysed in RIPA buffer 30 minutes at 4°C; immunoprecipitation with anti-Myc (9E10), anti-V5 or anti-Flag antibodies coupled to protein A-agarose; washed three times in PBS pH 7.4; immunoblot; some samples cotransfected with Flag-SGK1-CA or Flag-SGK1-DN. In general terms: In western blotting, separated proteins are transferred to a membrane and probed.

Test [2] concerns the target Flag-tagged serum- and glucocorticoid-induced protein kinase 1 (SGK1) (UniProt O00141). Described as above.
Test [3] addresses GST-SGK1 (UniProt O00141). The experiment in a line: pull-down; purified GST-SGK1 immobilised on GSH-agarose, incubated with lysates of HEK293 cells transfected with V5-NCT, 4°C with rotation; beads washed three times in ice-cold PBS; immunoblot with anti-V5; only the target purified.
The target in test [4] is endogenous SGK1 of Rat2 fibroblasts (rat (endogenous in Rat2)) (UniProt Q06226). The experiment in a line: co-IP; endogenous proteins; Rat fibroblast Rat2 cells expressing control siRNA or rSGK1 siRNA, untreated or treated with 1 µM dexamethasone for 24 hours; immunoprecipitation with anti-SGK antibody, immunoblot with anti-NCT antibody.
Test [5] concerns the target endogenous SGK1 of mouse embryonic fibroblasts (mouse (endogenous in MEF)) (UniProt Q9WVC6). Briefly: co-IP; endogenous proteins; MEF cells from SGK1+/+ and SGK1-/- mice lysed, immunoprecipitation with IgG or anti-SGK1 antibody, immunoblot with anti-NCT antibody.

Turning to “Flag-tagged serum- and glucocorticoid-induced protein kinase 1 (SGK1) (from UniProt O00141 1-431) (enzyme)”, the binding result in test [1] is reported as “binds”.
In the case of “V5-tagged wild-type Nicastrin (NCT) (from UniProt Q92542 34-709)”, the binding entry in test [2] and in test [3] was “binds” in each case.
Consider “endogenous Nicastrin (NCT) of Rat2 fibroblasts (from UniProt Q8CGU6 35-708)”, for which, in test [4], the binding entry is “binds”.
With “endogenous Nicastrin (NCT) of mouse embryonic fibroblasts (from UniProt P57716 28-708)”, the binding entry in test [5] is “binds”.
